Measurements reported in PubChem BioAssay AID504786 (Drosophila RNAi Screening Center, 2011)

- Aim: 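Fly genes required for HIF-dependent transcription when hypoxia is mimicked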 (primary screen)
- Cells: Drosophila S2 cells with a stable HIF luciferase reporter
- Knock-down reagent: long dsRNA against Drosophila genes, about 0.2 µg dsRNA per well of a 384-well plate
- Timing: three days of knock-down, then 20 h of DFO before reading
- Treatment: desferrioxamine (DFO) at 100 µM, an iron chelator that mimics hypoxia, for 20 h
- Measured: 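HIF reporter luminescence in cells given 100 µM DFO for 20 h, using the mouse ldh-a hypoxia-response element, scored as per-plate z-scores; higher means greater loss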
- Scale: z-score: higher = stronger loss of HIF reporter signal
In all, the deposit lists about 21,000 reagents; shown is a random part of those that have a named target and a result. 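Primary screen; positive scores mean lost reporter signal, so the sign may be inverted from the usual convention.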 Names joined by + are all predicted targets of the reagent. Not all columns of the deposit are shown. Reagent sequences are not shown.

| gene | dsRNA | z-score, replicate 1 | z-score, replicate 2 |
| --- | --- | --- | --- |
| Tnpo-SR (Transportin-Serine/Arginine rich) | DRSC00546 | 4.4 | 3.7 |
| CG30414 | DRSC04372 | -0.4 | 0.2 |
| croc (crocodile) | DRSC11884 | -0.3 | -0.4 |
| CG10761 | DRSC17753 | -0.3 | -0.8 |
| S-Lap4 (Sperm-Leucylaminopeptidase 4) | DRSC10957 | -0.3 | -0.4 |
| nerfin-2 (nervous fingers 2) | DRSC14547 | -0.1 | -0.3 |
| Cfp1 (CXXC finger protein 1) | DRSC18128 | -0.3 | 0 |
| CG15035 | DRSC17967 | -0.3 | -0.8 |
| Lgr1 (Leucine-rich repeat-containing G protein-coupled receptor 1) | DRSC16675 | -0.5 | 0.1 |
| Flo2 (Flotillin 2) | DRSC19062 | 0 | -0.4 |
| Flo2 (Flotillin 2) | DRSC20244 | -0.3 | -1.2 |
| Acsf2 (Acyl-CoA synthetase family member 2) | DRSC02172 | -0.2 | -0.2 |
| bou (boudin) | DRSC17924 | -0.2 | 0.1 |
| CG11327 | DRSC02146 | -0.3 | -0.3 |
| bt (bent) | DRSC17129 | -0.2 | 0.8 |
| bt (bent) | DRSC17171 | -0.2 | -0.3 |
| CG18327 | DRSC06722 | 0.1 | -0.2 |
| org-1 (optomotor-blind-related-gene-1) | DRSC18810 | -0.4 | -0.9 |
| NHP2 | DRSC11229 | -0.4 | -0.8 |
| Pal2 (Peptidyl-alpha-hydroxyglycine-alpha-amidating lyase 2) | DRSC04507 | -0.2 | -0.5 |
| pns (pinstripe) | DRSC08598 | -0.2 | -0.4 |
| CG18563 | DRSC02676 | 1.4 | -0.3 |
| Adgf-A (Adenosine deaminase-related growth factor A) | DRSC10566 | -0.3 | -0.7 |
| CG5787 | DRSC02895 | -0.1 | -0.5 |
| CG3529 | DRSC10369 | -0.2 | 0.4 |
| CG15023 | DRSC08477 | -0.4 | -0.7 |
| ssp3 (short spindle 3) | DRSC02669 | -0.2 | -0.2 |
| ssp3 (short spindle 3) | DRSC02670 | -0.2 | -0.3 |
| Akh (Adipokinetic hormone) | DRSC08138 | -0.3 | -0.1 |
| CG34197 (retired record) | DRSC05791 | -0.2 | -0.2 |
| Ir94c (Ionotropic receptor 94c) | DRSC13539 | -0.4 | 0.1 |
| beat-IIIa (beaten path IIIa) | DRSC01575 | -0.2 | -0.6 |
| beat-IIIa (beaten path IIIa) | DRSC01577 | 0 | -0.4 |
| beat-IIIa (beaten path IIIa) | DRSC02178 | -0.3 | -0.5 |
| CG32032 | DRSC08961 | -0.3 | 0.2 |
| Rcd-1r + CG13102 | DRSC03266 | -0.3 | -0.6 |
| Arp10 (Actin-related protein 10) | DRSC19448 | -0.1 | 0 |
| c12.2 | DRSC18751 | -0.3 | -0.6 |
| CG13460 | DRSC10007 | 0 | -0.5 |
| CG3294 | DRSC00590 | -0.4 | -0.5 |
| CG16904 | DRSC15161 | -0.4 | -0.3 |
| Kap-alpha3 (karyopherin alpha3) | DRSC16976 | 0.1 | -0.1 |
| CG9886 | DRSC00732 | -0.3 | -0.3 |

The list goes on; the last 5 above are carried over.
| gene | dsRNA | z-score, replicate 1 | z-score, replicate 2 |
| --- | --- | --- | --- |
| CG13460 | DRSC10007 | 0 | -0.5 |
| CG3294 | DRSC00590 | -0.4 | -0.5 |
| CG16904 | DRSC15161 | -0.4 | -0.3 |
| Kap-alpha3 (karyopherin alpha3) | DRSC16976 | 0.1 | -0.1 |
| CG9886 | DRSC00732 | -0.3 | -0.3 |
| Grl62c (Gustatory receptor-like 62c) | DRSC07964 | -0.2 | -0.6 |
| CG7848 | DRSC07050 | -0.1 | 0 |
| CG30010 | DRSC05193 | -0.3 | -0.2 |
| pyd3 | DRSC15459 | -0.3 | -0.5 |
| Ddx56 (DEAD-box helicase 56) | DRSC20567 | 0.7 | 0.4 |
| ATPsynO (ATP synthase, oligomycin sensitivity conferring protein) | DRSC16780 | 0.7 | 0.6 |
| alpha-Est2 (alpha-Esterase-2) | DRSC12614 | -0.4 | -0.1 |
| CG13308 | DRSC09979 | -0.2 | 0.1 |
| CG32733 (retired record) + CG32797 | DRSC17705 | 1.1 | 0.9 |
| mtTFB1 + Ccdc56 | DRSC10809 | -0.3 | -0.4 |
| NimC4 (Nimrod C4) | DRSC01945 | -0.4 | -0.4 |
| tara (taranis) | DRSC17076 | -0.4 | -1 |
| tst + CG10375 | DRSC14237 | -0.1 | 0.3 |
| hh (hedgehog) | DRSC16965 | -0.4 | -0.3 |
| CG4744 | DRSC06887 | -0.3 | -0.4 |
| CG5126 | DRSC00680 | -0.1 | -0.5 |
| CG17202 | DRSC15194 | 0.8 | 1.4 |
| CG9705 | DRSC11094 | -0.2 | -0.4 |
| Lsp1gamma (Larval serum protein 1 gamma) | DRSC08672 | 0.4 | 0.4 |
| mthl6 (methuselah-like 6) | DRSC10234 | -0.1 | -0.2 |
| Spn47C (Serpin 47C) | DRSC07030 | -0.2 | 0.1 |
| Synd (Syndapin) | DRSC15116 | 0.3 | -0.6 |
| Dhc98D (Dynein heavy chain at 89D) | DRSC16645 | -0.4 | 0.1 |
| CG14406 | DRSC19592 | 0.1 | 0.8 |
| CG13116 | DRSC02214 | -0.4 | -0.4 |
| CG7992 | DRSC20070 | -0.4 | 0 |
| nanos | DRSC17018 | -0.3 | -0.1 |
| Erk7 (Extracellularly regulated kinase 7) | DRSC18127 | -0.4 | -0.5 |
| Erk7 (Extracellularly regulated kinase 7) | DRSC18227 | -0.2 | 0.1 |
| CG16775 | DRSC10225 | -0.2 | -0.2 |
| dyw (daywake) | DRSC18228 | -0.3 | -0.6 |
| Nrk (Neurospecific receptor kinase) | DRSC07480 | -0.3 | -0.3 |
| BG642163 | DRSC00342 | -0.2 | -0.2 |
| BG642163 | DRSC00343 | -0.3 | -0.3 |
| CG5510 | DRSC15823 | -0.2 | -0.2 |
| Grl58a (Gustatory receptor-like 58a) | DRSC04145 | -0.2 | -0.2 |
| CG14756 | DRSC06491 | -0.2 | -0.3 |
| CG10646 | DRSC09764 | -0.6 | -0.3 |
| Su(var)3-9 (Suppressor of variegation 3-9) | DRSC14484 | -0.2 | 0.3 |
| CG10600 | DRSC02074 | -0.4 | -0.2 |
